According to the supplement of paper PMC11732987, “Enantioselective OTUD7B fragment discovery through chemoproteomics screening and high-throughput optimisation” (Communications Chemistry, 2025):
The list shows a part of the results. The data scatter; read single values as rough.

By UniProt entry, the sequences of proteins in these tests, tags left out. Where a name states a change or a piece, a line headed by the entry shows the natural chain unless it says otherwise. Residues count along the entry.
UniProt Q5THK1: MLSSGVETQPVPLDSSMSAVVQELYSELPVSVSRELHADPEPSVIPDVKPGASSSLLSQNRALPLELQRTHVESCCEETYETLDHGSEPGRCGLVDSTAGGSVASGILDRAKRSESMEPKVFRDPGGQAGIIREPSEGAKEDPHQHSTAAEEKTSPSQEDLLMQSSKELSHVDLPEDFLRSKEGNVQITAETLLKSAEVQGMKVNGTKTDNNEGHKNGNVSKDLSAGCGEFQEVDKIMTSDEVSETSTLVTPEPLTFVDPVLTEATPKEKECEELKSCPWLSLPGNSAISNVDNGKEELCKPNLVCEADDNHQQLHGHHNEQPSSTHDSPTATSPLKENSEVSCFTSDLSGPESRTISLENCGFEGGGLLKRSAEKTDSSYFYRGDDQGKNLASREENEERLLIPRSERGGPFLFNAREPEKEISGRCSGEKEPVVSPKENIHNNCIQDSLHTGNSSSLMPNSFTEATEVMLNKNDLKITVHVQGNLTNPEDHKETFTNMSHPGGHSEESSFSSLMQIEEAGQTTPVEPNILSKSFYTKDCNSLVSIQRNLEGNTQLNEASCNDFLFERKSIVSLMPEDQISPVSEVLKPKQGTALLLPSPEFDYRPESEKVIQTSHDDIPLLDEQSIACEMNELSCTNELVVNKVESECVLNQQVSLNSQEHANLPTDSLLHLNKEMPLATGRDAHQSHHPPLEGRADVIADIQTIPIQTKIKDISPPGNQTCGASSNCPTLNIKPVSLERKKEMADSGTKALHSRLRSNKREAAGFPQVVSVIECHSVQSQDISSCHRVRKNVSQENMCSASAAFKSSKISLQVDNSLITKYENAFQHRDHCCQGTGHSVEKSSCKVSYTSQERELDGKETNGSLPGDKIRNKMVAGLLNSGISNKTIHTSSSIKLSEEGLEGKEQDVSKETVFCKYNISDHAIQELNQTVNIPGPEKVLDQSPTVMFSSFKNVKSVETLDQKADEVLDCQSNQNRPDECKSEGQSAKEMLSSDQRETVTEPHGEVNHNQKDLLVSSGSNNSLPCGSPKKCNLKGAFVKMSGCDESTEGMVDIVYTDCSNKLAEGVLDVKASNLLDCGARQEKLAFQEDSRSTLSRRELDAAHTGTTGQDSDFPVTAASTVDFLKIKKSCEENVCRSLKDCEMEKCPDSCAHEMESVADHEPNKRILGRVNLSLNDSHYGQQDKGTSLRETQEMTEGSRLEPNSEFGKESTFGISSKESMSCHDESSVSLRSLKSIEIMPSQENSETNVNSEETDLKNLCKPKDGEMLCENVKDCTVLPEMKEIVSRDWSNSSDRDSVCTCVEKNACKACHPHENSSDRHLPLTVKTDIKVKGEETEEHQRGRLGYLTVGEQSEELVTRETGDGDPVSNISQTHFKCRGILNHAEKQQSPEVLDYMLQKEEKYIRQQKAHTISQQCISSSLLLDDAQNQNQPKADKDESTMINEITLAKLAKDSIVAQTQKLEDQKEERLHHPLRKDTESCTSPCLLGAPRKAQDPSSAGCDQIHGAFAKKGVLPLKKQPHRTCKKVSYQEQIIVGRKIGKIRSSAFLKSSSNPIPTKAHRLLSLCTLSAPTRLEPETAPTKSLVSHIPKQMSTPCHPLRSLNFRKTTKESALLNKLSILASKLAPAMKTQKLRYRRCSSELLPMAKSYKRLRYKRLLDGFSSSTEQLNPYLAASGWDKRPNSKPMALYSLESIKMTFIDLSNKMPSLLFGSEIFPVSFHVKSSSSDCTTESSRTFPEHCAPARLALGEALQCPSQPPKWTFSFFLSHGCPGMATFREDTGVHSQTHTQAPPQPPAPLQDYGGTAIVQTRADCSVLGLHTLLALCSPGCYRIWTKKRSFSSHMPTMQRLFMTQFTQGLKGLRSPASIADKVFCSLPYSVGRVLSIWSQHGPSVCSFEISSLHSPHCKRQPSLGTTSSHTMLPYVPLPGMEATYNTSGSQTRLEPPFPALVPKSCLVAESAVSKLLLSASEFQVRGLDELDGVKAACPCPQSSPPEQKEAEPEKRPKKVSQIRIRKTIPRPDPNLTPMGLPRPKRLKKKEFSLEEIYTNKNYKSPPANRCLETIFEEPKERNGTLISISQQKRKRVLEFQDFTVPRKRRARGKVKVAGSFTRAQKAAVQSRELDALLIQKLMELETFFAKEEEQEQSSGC
UniProt Q9UL46, whole entry, looked up: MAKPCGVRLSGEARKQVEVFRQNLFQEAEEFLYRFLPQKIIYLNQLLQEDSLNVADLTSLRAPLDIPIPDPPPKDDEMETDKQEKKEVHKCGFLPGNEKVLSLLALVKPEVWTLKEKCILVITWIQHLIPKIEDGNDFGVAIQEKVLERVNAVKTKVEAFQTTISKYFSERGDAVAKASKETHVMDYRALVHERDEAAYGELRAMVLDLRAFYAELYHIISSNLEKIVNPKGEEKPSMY
UniProt Q12923: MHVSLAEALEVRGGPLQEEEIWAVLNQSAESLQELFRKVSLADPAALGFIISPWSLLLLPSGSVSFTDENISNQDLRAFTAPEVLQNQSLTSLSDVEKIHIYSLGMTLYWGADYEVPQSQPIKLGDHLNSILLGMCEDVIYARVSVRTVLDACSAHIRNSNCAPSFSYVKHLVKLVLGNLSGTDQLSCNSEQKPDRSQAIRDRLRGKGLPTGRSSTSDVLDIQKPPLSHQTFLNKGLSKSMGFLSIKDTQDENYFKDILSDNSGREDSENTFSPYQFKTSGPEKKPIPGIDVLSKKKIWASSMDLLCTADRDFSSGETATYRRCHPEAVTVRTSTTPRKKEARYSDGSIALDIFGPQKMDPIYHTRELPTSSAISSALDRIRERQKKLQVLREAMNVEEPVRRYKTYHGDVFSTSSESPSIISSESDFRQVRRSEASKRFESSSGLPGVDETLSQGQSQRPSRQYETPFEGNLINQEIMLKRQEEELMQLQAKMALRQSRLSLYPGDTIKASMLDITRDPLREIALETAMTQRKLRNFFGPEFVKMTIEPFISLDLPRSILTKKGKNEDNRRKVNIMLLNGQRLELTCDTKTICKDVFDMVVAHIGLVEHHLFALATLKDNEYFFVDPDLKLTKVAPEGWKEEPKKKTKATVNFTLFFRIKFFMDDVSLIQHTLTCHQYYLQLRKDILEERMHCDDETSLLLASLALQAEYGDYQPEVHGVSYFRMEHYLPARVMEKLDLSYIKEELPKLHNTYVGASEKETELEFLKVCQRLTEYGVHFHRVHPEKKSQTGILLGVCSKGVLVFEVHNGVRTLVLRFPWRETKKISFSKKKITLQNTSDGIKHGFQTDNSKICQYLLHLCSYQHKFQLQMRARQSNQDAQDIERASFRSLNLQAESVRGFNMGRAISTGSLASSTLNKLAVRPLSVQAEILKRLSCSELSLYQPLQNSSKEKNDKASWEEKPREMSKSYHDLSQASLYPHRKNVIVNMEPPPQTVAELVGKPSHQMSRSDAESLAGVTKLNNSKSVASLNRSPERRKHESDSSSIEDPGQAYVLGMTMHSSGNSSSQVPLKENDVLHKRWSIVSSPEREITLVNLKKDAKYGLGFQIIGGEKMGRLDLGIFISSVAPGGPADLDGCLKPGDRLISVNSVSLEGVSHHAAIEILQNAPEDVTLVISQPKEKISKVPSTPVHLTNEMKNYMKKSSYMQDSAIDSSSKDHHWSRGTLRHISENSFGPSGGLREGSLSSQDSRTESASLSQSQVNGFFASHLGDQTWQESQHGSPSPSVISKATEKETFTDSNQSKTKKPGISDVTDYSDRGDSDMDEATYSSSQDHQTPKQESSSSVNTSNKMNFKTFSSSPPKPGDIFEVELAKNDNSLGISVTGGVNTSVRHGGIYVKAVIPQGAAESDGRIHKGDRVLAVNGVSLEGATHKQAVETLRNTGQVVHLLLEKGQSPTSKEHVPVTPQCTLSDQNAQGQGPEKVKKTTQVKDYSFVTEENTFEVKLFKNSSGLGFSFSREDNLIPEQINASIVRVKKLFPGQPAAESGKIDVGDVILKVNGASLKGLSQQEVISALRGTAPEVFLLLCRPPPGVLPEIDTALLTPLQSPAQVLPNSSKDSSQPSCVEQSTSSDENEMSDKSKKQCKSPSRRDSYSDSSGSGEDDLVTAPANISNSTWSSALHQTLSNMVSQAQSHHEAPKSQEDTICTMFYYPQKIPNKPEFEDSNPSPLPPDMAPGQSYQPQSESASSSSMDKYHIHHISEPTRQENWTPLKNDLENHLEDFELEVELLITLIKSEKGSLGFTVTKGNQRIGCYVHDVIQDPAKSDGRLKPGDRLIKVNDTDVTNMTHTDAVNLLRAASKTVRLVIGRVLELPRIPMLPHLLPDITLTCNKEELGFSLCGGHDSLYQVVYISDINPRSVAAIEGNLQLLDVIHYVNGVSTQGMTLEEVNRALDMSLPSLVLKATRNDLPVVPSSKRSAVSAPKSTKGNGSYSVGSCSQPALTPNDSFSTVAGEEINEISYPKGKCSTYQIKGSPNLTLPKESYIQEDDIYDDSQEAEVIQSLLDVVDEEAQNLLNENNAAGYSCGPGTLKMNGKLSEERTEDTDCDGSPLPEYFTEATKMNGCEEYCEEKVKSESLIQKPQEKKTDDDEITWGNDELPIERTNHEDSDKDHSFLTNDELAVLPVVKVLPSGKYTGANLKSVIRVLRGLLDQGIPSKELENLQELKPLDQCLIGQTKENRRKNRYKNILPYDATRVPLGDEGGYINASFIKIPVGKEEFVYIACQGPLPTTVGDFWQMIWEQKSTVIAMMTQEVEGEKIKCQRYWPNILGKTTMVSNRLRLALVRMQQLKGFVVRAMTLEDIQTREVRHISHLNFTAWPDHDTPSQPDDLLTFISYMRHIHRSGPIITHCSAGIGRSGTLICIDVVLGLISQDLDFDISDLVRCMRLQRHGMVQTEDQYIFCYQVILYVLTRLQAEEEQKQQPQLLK
UniProt Q96DA2: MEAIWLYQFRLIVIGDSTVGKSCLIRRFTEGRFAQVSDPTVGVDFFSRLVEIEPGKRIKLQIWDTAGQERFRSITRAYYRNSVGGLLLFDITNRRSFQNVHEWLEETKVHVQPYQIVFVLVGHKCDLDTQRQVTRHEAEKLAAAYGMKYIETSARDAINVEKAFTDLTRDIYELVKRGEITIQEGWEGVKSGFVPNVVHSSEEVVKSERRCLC
UniProt Q9Y3T6: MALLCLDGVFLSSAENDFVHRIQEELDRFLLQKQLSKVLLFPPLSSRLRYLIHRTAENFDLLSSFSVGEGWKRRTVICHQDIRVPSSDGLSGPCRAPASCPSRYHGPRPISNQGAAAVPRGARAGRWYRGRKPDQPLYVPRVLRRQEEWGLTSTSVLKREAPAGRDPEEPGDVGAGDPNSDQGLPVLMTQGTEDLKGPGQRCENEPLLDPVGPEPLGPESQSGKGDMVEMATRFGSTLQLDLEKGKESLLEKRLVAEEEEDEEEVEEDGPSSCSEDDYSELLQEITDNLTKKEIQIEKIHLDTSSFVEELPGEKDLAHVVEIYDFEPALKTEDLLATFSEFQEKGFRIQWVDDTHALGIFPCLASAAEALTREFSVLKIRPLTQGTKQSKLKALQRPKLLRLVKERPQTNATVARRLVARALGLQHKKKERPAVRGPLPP
UniProt Q92698: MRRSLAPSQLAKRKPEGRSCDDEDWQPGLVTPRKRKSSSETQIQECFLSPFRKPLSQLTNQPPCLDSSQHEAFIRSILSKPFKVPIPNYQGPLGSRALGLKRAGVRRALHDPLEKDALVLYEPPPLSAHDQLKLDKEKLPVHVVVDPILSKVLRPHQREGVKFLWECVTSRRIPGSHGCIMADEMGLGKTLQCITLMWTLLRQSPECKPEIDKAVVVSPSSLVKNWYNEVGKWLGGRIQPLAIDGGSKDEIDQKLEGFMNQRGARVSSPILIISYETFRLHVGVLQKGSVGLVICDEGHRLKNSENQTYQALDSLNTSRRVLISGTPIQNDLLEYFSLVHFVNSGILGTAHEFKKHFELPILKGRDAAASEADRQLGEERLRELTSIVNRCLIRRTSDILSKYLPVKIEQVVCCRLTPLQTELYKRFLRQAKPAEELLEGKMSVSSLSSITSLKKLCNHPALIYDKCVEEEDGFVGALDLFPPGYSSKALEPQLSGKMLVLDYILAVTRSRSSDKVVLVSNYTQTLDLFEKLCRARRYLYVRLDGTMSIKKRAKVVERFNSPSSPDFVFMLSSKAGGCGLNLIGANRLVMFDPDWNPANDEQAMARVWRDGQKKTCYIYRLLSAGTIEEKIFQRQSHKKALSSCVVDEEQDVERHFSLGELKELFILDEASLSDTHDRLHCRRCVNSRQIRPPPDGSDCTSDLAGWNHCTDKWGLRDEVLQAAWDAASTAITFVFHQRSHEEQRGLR
UniProt P28066, 67-86: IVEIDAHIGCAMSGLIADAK
UniProt O95456: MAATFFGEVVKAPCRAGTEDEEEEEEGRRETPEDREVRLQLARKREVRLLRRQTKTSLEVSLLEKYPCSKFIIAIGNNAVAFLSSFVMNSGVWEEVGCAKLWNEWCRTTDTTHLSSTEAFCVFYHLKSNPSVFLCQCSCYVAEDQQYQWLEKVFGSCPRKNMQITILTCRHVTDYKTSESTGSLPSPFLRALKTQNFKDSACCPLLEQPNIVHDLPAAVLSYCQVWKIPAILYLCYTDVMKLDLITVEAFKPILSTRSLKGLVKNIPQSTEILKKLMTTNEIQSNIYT

Columns and labels:
[1] = compound: ClCC(=O)N[C@@H]1CCCc2ccccc12; experiment: log2 mean competition ratio of IA-DTB cysteine labelling (DMSO/compound) (log2 ratio); higher = stronger cysteine engagement by compound; details: treatment time: 4 h, cell line lysate: HEK293T
Procedure: (§1)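 IA-DTB competitive cysteine chemoproteomics in HEK293T RIPA lysate. Lysates were treated with compound 29 or 30 at 50 or 200 µM for 4 h, then IA-DTB (500 µM, 1 h), trypsin-digested, NeutrAvidin-enriched and analysed by diaPASEF. Competition ratio = intensity DMSO / intensity compound (n=4 treated, n=64 DMSO); binding: mean log2 CR ≥ 1 and p ≤ 0.05 plus QC filters. Target is the cysteine site.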

[2] = compound: ClCC(=O)N[C@H]1CCCc2ccccc12; experiment: as above; details: treatment time: 4 h, cell line lysate: HEK293T
Procedure: as §1

| Target | log2 mean competition ratio ([1]; 50 µM) | log2 mean competition ratio ([1]; 200 µM) | log2 mean competition ratio ([2]; 50 µM) | log2 mean competition ratio ([2]; 200 µM) |
| --- | --- | --- | --- | --- |
| RABAC1 C64 (UniProt Q9UI14) | -0.159 | -0.228 | -0.153 | -0.246 |
| RAD1 C42 (UniProt O60671) | 0.0503 | -0.342 | 0.143 | -0.363 |
| PSME4 C710 (UniProt Q14997) | 0.0056 | -0.243 | 0.29 | -0.192 |
| PRR14L C92 (UniProt Q5THK1) | -0.0345 | 0.0528 | 0.798 | 0.159 |
| RAD21 C35 (UniProt O60216) | -0.0735 | 0.416 | 0.00793 | 0.193 |
| PSME2 C91 (UniProt Q9UL46) | 0.0492 | -0.106 | -0.0463 | 0.0205 |
| PTPN13 C2024 (UniProt Q12923) | 0.219 | 0.0299 | 0.268 | 0.145 |
| RABGAP1L C665 (UniProt Q5R372) | -0.0358 | 0.0858 | -0.383 | -0.0667 |
| RAB39B C125 (UniProt Q96DA2) | -0.047 | 0.378 | 0.102 | 0.305 |
| PRR14L C1503 (UniProt Q5THK1) | 0.121 | 0.0271 | -0.232 | 0.0447 |
| QPRT C111 (UniProt Q15274) | -0.0118 | 0.207 | 0.595 | 0.0979 |
| PTK2 C658 (UniProt Q05397) | -0.00566 | 0.132 | -0.133 | 0.109 |
| RABGAP1 C805 (UniProt Q9Y3P9) | 0.253 | -0.0581 | 0.263 | -0.044 |
| RAB12 C159 | 0.0453 | 0.0274 | -0.361 | -0.0102 |
| PTPN13 C1705 (UniProt Q12923) | -0.125 | 0.116 | 0.111 | 0.0795 |
| RAB9A C142 (UniProt P51151) | -0.278 | 0.162 | -0.163 | 0.224 |
| PTPN14 C133 (UniProt Q15678) | 0.0319 | -0.0906 | -0.254 | -0.196 |
| PTPN23 C65 (UniProt Q9H3S7) | 0.0329 | 0.219 | 0.162 | 0.425 |
| PUS1 C125 (UniProt Q9Y606) | 0.345 | -0.0819 | -0.0172 | -0.148 |
| RAC1 C178 (UniProt P63000) | -0.0206 | -0.286 | 0.29 | -0.242 |
| PSMD13 C114 (UniProt Q9UNM6) | -0.1 | -0.221 | 0.167 | -0.0474 |
| R3HCC1 C78 (UniProt Q9Y3T6+R3HCC1) | -0.126 | 0.128 | 0.00131 | 0.144 |

Exported bar-delimited: part of the list above
Target | log2 mean competition ratio ([1]; 50 µM) | log2 mean competition ratio ([1]; 200 µM) | log2 mean competition ratio ([2]; 50 µM) | log2 mean competition ratio ([2]; 200 µM)
PRR14L C92 (UniProt Q5THK1) | -0.0345 | 0.0528 | 0.798 | 0.159
RABGAP1L C665 (UniProt Q5R372) | -0.0358 | 0.0858 | -0.383 | -0.0667
RAB39B C125 (UniProt Q96DA2) | -0.047 | 0.378 | 0.102 | 0.305
RAB9A C142 (UniProt P51151) | -0.278 | 0.162 | -0.163 | 0.224
PUS1 C125 (UniProt Q9Y606) | 0.345 | -0.0819 | -0.0172 | -0.148
PSMD13 C114 (UniProt Q9UNM6) | -0.1 | -0.221 | 0.167 | -0.0474
R3HCC1 C78 (UniProt Q9Y3T6+R3HCC1) | -0.126 | 0.128 | 0.00131 | 0.144

(next part)

| Target | log2 mean competition ratio ([1]; 50 µM) | log2 mean competition ratio ([1]; 200 µM) | log2 mean competition ratio ([2]; 50 µM) | log2 mean competition ratio ([2]; 200 µM) |
| --- | --- | --- | --- | --- |
| RAB3D C184 (UniProt O95716) | -0.267 | -0.0536 | 0.0167 | -0.0134 |
| RAB3D C137 (UniProt O95716) | -0.151 | 0.0265 | -0.227 | 0.11 |
| RAD54L C207 (UniProt Q92698) | -0.366 | -0.0438 | -0.138 | -0.143 |
| R3HDM1 C304 (UniProt Q15032+R3HDM1) | 0.237 | -0.0942 | 0.436 | -0.0236 |
| RAD21 C78 (UniProt O60216) | 0.705 | -0.013 | 0.0239 | 0.172 |
| RACGAP1 C109 (UniProt Q9H0H5) | 0.25 | -0.208 | 0.994 | -0.0234 |
| PYGB C808 (UniProt P11216) | -0.0971 | -0.163 | 0.0179 | 0.113 |
| RAD54B C851 (UniProt Q9Y620) | -0.0224 | -0.242 | -0.184 | -0.00121 |
| PRRC2B C1101 | 0.125 | 0.143 | 0.325 | 0.209 |
| RAD51B C16 (UniProt O15315) | 0.101 | 0.141 | 0.0647 | 0.242 |
| PSMC6 C347 (UniProt P62333) | 0.0649 | -0.165 | 0.149 | -0.0291 |
| PTPN1 C344 (UniProt P18031) | 0.0143 | -0.129 | -0.101 | -0.0992 |
| PWWP2A C654 (UniProt Q96N64) | 0.497 | 0.0719 | -0.106 | -0.329 |
| PSMA5 C76 (UniProt P28066) | -0.045 | 0.465 | 0.0827 | 0.186 |
| PTCD1 C183 (UniProt O75127) | 0.927 | 0.684 | 0.537 | 0.773 |
| PSMG1 C157 (UniProt O95456) | -0.135 | -0.269 | 0.106 | -0.188 |
| RAD54L2 C184 (UniProt Q9Y4B4) | 0.098 | -0.648 | 0.0867 | -0.471 |
| RABEP2 C482 (UniProt Q9H5N1) | 0.061 | 0.00266 | 0.0294 | -0.133 |
| RAD50 C221 | -0.00832 | -0.0742 | -0.723 | -0.296 |
| RAB11FIP1 C318 (UniProt Q6WKZ4) | 0.28 | 0.201 | -0.0436 | -0.0787 |
| PRRC2C C587 (UniProt Q9Y520) | -0.0842 | -0.112 | -0.19 | 0.00737 |
